Assay results from the supplement of paper PMC5711842.
Where a name gives a salt, the structure may show the parent alone. Single values of this set are uncertain. Peptide text beside a SMILES is read from it. * marks the point of attachment. Cbz = O=C(OCc1ccccc1)*; CH2F = FC*

Tested on: Danio rerio embryo
Assay: lowest lethal concentration (of 2, 10, 50 µM tested), 10-36 hpf treatment; higher = less toxic
Conditions: treatment window: 10-36 hpf

Compound	lowest lethal concentration
CO[C@H]1C[C@@H]2CC[C@@H](C)[C@@](O)(O2)C(=O)C(=O)N2CCCC[C@H]2C(=O)O[C@H]([C@H](C)C[C@@H]2CC[C@@H](O)[C@H](OC)C2)CC(=O)[C@H](C)/C=C(\C)[C@@H](O)[C@@H](OC)C(=O)[C@H](C)C[C@H](C)/C=C/C=C/C=C/1C [Rapamycin]	> 50 µM
Cc1cncc2cccc(S(=O)(=O)N3CCCN(C(=O)CN)C[C@@H]3C)c12 [Rho Kinase Inhibitor IV]	> 50 µM
COC(=O)[C@H](Cc1ccc(C#Cc2ccccc2)cc1)NC(=O)C[C@H]1CCCN(C(=N)N)C1 [Ro 26-4550 trifluoroacetate]	> 50 µM
c1ccc2c(-c3ccncc3)c[nH]c2c1 [Rockout]	> 50 µM
Cc1nn(-c2ccccc2)c(C)c1C=NN1CCN(Cc2ccccc2)CC1 [SANT-1]	> 50 µM
FC(F)(F)c1cccc(-c2noc(-c3cc(-c4ccccc4)c(C(F)(F)F)s3)n2)c1 [SEW2871]	> 50 µM
CC(=O)O[C@@H]1[C@@H](OC(C)=O)[C@@H](O)[C@H](Oc2c(-c3ccc(O)cc3)oc3cc(O)cc(O)c3c2=O)O[C@H]1C [SL 0101-1]	> 50 µM
CCOC(=O)c1cn(-c2c(F)c(F)c(C#N)c(F)c2F)c2c(F)c(F)c(F)cc2c1=O [STAT3 Inhibitor VII]	10 µM
O=C(O)c1ccc2c3c1cccc3c(=O)n1c3ccccc3nc21 [STO 609]	> 50 µM
CN(C)S(=O)(=O)c1ccc2c(c1)/C(=C/c1cc3c([nH]1)CCCC3)C(=O)N2 [SU6656]	50 µM
O=C(C=Cc1ccccc1)NC(NC(=S)Nc1ccc(Cl)cc1)C(Cl)(Cl)Cl (configuration not stated) [Sal003]	> 50 µM
CC(C(=O)Nc1cccc(/N=C/c2c(O)ccc3ccccc23)c1)c1ccccc1 (configuration not stated) [Salermide]	> 50 µM
COc1nc(-c2ccc3c(c2)OCO3)n(-c2ccc(NC(=O)CSc3ccccc3)cc2)n1 [SecinH3]	> 50 µM
NCCc1c[nH]c2ccc(O)cc12 [Serotonin Hydrochloride]	> 50 µM
CN/C(=N\c1ccc(C2=NNC(=O)CC2C)cc1)NC#N (configuration not stated) [Siguazodan]	> 50 µM
CCC(C)(C)C(=O)O[C@H]1C[C@@H](C)C=C2C=C[C@H](C)[C@H](CC[C@@H](O)C[C@@H](O)CC(=O)O)[C@H]21 [Simvastatin sodiumÂ]	> 50 µM
CNC1CCC(N(Cc2cccc(-c3ccncc3)c2)C(=O)c2sc3ccccc3c2Cl)CC1 (configuration not stated) [Smoothened Agonist, SAG]	> 50 µM
Oc1ccc(Nc2nc(-c3ccc(Cl)cc3)cs2)cc1 [Sphingosine Kinase Inhibitor]	> 50 µM
COc1cc2ncnc(Nc3ccc(Oc4ccccc4)cc3)c2cc1OC [Src Kinase Inhibitor I]	> 50 µM
COc1cc2ncnc(Nc3ccc(Cl)cc3Cl)c2cc1OC [Ste11 MAPKKK Activation Inhibitor]	> 50 µM
O=[N+]([O-])/C=C/c1ccc2c(c1)OCO2 [Syk Inhibitor III]	> 50 µM
NCCNc1ncc(C(N)=O)c(Nc2cccc(C(F)(F)F)c2)n1 [Syk Inhibitor II]	> 50 µM
O=C(O)/C=C/c1cc(Br)c(Br)c(Br)c1Br [TBCA]	> 50 µM
O=C1NC(=O)/C(=C\c2cccc(C(F)(F)F)c2)S1 [TCS-PIM-1-4a]	50 µM
Cc1cccc(-c2[nH]c(C(C)(C)C)nc2-c2ccc3c(c2)OCO3)n1 [TGF-b RI Inhibitor III]	> 50 µM
Cc1cc2occ(CN(C)CCN(C)Cc3cn(-c4cccc(C(F)(F)F)c4)c4ccccc34)c(=O)c2cc1C [TNF-alpha Inhibitor]	50 µM

15 of the compounds above, as a markdown table:

| Compound | lowest lethal concentration |
| --- | --- |
| COC(=O)[C@H](Cc1ccc(C#Cc2ccccc2)cc1)NC(=O)C[C@H]1CCCN(C(=N)N)C1 [Ro 26-4550 trifluoroacetate] | > 50 µM |
| c1ccc2c(-c3ccncc3)c[nH]c2c1 [Rockout] | > 50 µM |
| Cc1nn(-c2ccccc2)c(C)c1C=NN1CCN(Cc2ccccc2)CC1 [SANT-1] | > 50 µM |
| FC(F)(F)c1cccc(-c2noc(-c3cc(-c4ccccc4)c(C(F)(F)F)s3)n2)c1 [SEW2871] | > 50 µM |
| CC(=O)O[C@@H]1[C@@H](OC(C)=O)[C@@H](O)[C@H](Oc2c(-c3ccc(O)cc3)oc3cc(O)cc(O)c3c2=O)O[C@H]1C [SL 0101-1] | > 50 µM |
| CCOC(=O)c1cn(-c2c(F)c(F)c(C#N)c(F)c2F)c2c(F)c(F)c(F)cc2c1=O [STAT3 Inhibitor VII] | 10 µM |
| O=C(O)c1ccc2c3c1cccc3c(=O)n1c3ccccc3nc21 [STO 609] | > 50 µM |
| CN(C)S(=O)(=O)c1ccc2c(c1)/C(=C/c1cc3c([nH]1)CCCC3)C(=O)N2 [SU6656] | 50 µM |
| O=C(C=Cc1ccccc1)NC(NC(=S)Nc1ccc(Cl)cc1)C(Cl)(Cl)Cl (configuration not stated) [Sal003] | > 50 µM |
| CC(C(=O)Nc1cccc(/N=C/c2c(O)ccc3ccccc23)c1)c1ccccc1 (configuration not stated) [Salermide] | > 50 µM |
| COc1nc(-c2ccc3c(c2)OCO3)n(-c2ccc(NC(=O)CSc3ccccc3)cc2)n1 [SecinH3] | > 50 µM |
| NCCc1c[nH]c2ccc(O)cc12 [Serotonin Hydrochloride] | > 50 µM |
| CN/C(=N\c1ccc(C2=NNC(=O)CC2C)cc1)NC#N (configuration not stated) [Siguazodan] | > 50 µM |
| CCC(C)(C)C(=O)O[C@H]1C[C@@H](C)C=C2C=C[C@H](C)[C@H](CC[C@@H](O)C[C@@H](O)CC(=O)O)[C@H]21 [Simvastatin sodiumÂ] | > 50 µM |
| CNC1CCC(N(Cc2cccc(-c3ccncc3)c2)C(=O)c2sc3ccccc3c2Cl)CC1 (configuration not stated) [Smoothened Agonist, SAG] | > 50 µM |

Additional results follow:

Compound	lowest lethal concentration
FC(F)(F)c1ccccc1-n1ccnc1 [TRIM]	> 50 µM
CC/C(=C(\c1ccccc1)c1ccc(OCCN(C)C)cc1)c1ccccc1 [Tamoxifen]	> 50 µM
C=CCNC1=C2C[C@@H](C)C[C@H](OC)[C@H](O)[C@@H](C)/C=C(\C)[C@H](OC(N)=O)[C@@H](OC)/C=C\C=C(/C)C(=O)NC(=CC1=O)C2=O [Tanespimycin]	> 50 µM
N#Cc1cnc2cnc(NCc3cccnc3)cc2c1NC1CCCCCC1 [Tpl2 Kinase Inhibitor II]	> 50 µM
N#Cc1cnc2cnc(NCc3cccnc3)cc2c1Nc1ccc(F)c(Cl)c1 [Tpl2 Kinase Inhibitor]	> 50 µM
CN1CCN(CCCN2c3ccccc3Sc3ccc(C(F)(F)F)cc32)CC1 [Trifluoperazine]	> 50 µM
Cc1c(C)c2c(c(C)c1O)CCC(C)(C(=O)O)O2 (configuration not stated) [Trolox]	> 50 µM
N#CC(C#N)=C(N)/C(C#N)=C/c1ccc(O)cc1 [Tyrphostin AG 112]	> 50 µM
O=C1CC(=O)c2c(Cl)c(Cl)c(Cl)c(Cl)c21 [UCH 23]	> 50 µM
O=C(Nc1ccc(Cl)cc1)c1ccccc1NCc1ccncc1 [VEGF Receptor Tyrosine Kinase Inhibitor II]	> 50 µM
CCOC(=O)c1c(C)[nH]c(C=C2C(=O)Nc3ccccc32)c1C [VEGFR2 Kinase Inhibitor I]	> 50 µM
Cc1cccc(NC(=O)Nc2ccc(-c3cccc4[nH]nc(N)c34)cc2)c1 [VEGFR2/Flt3/c-Kit Inhibitor]	> 50 µM
COc1cc2ncnc(Nc3ccc(O)c(Br)c3)c2cc1OC [WHI-P154]	> 50 µM
CCCCn1c2ccc(O)cc2c2c3c(c(-c4ccccc4Cl)cc21)C(=O)NC3=O [Wee1 Inhibitor II]	> 50 µM
O=C1NC(=O)c2c1c(-c1ccccc1Cl)cc1[nH]c3ccc(O)cc3c21 [Wee1 Inhibitor]	> 50 µM
COc1cccc(-c2cc(NCc3ccc4c(c3)OCO4)nc(N)n2)c1 [Wnt Agonist]	2 µM
COC[C@H]1OC(=O)c2coc3c2[C@@]1(C)C1=C(C3=O)[C@@H]2CCC(=O)[C@@]2(C)C[C@H]1OC(C)=O [Wortmannin]	50 µM
Cc1cc(C(=O)N2CCN(c3cccc(Cl)c3)CC2)n(-c2ccccc2)n1 [XRP44X]	10 µM
OCc1ccc(-c2nn(Cc3ccccc3)c3ccccc23)o1 [YC-1]	> 50 µM
C/C=C1\C(=O)C[C@H]2[C@@H]3CCC4=CC(=O)CC[C@]4(C)[C@H]3CC[C@]12C [Z-Guggulsterone]	> 50 µM
COC(=O)C[C@H](NC(=O)[C@H](C)NC(=O)[C@@H](NC(=O)OCc1ccccc1)C(C)C)C(=O)CF [Z-VAD-FMK] (Cbz-Val-Ala-Asp(OMe)-CH2F)	> 50 µM
COc1cc(-c2ccc(=O)[nH]n2)ccc1OC(F)F [Zardaverine]	> 50 µM
COC(=O)c1ccc(/C=C/c2ccc([N+](=O)[O-])o2)o1 [betaARK1 Inhibitor]	> 50 µM
CC1(C)[C@H]2CC[C@](C)(C2)[C@H]1NS(=O)(=O)c1ccc(F)cc1 [gamma-Secretase Inhibitor VI]	> 50 µM
O=c1c(-c2ccc(F)cc2)c(-c2ccncc2)[nH]n1-c1ccc(Cl)cc1 [p38 MAP Kinase Inhibitor]	> 50 µM
CCc1ccc(S(=O)(=O)c2ccccc2)cc1S(=O)(=O)NCCCN(C)C [sFRP-1 Inhibitor]	> 50 µM
